The whole screen tested about 52,000 sequences, of which about 210 (0.4%) were called active.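 The calls were made as follows: active = gene whose silencing raises cell survival under the drug, median off-target-corrected z-score across its silencing RNAs 2 or more; inactive = the rest.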 The list shows a part of the results.

The source of these data is PubChem BioAssay AID1347423 (Functional Genomics Laboratory (NCATS/FGL), 2020).

The assay in a line: Resistance to Poly (ADP-Ribose) Polymerase inhibitor: Gene Identification via Genome-wide siRNA Screen. The conditions noted are these: mouse BRCA2 R2336H ES cells, olaparib, CellTiter-Glo viability; hits give high values. The gist of the method:
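Mouse BRCA2 R2336H ES cells were reverse-transfected with siRNA (20 nM final), treated at 48 h with 500 nM olaparib, and read by CellTiter-Glo after 72 h. Scores: MAD-based z per siRNA, median per gene, seed off-target correction.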
Consider GCAAUGUACUACCAAGAAUTT against Gbe1, for which the z-score was inactive: -0.791.

CGAUGACAGACCCUUUCUGTT against Slc2a8: the z-score was inactive: 0.102. The value for GGAUUUGGACUCAAAACUATT against Pkig was inactive: 0.285; that for GGGACAAGUGUUGUUUGACTT against Epb4.1l2 was inactive: 0.484. The value for “GGAGGAUCUUAAGAAGUUCTT against 0710001P09Rik” was inactive: 0.639; that for GGGUGACACCUUGUCCAACTT against Abcc6 was inactive: -1.36; that for “CCAGAAAUCCCUAUAGAUGTT against D030051N19Rik” was inactive: 0.474. To “GGAGGACACUCAGAAGAAATT against 6820443O06Rik” belongs inactive: 0.482. For GGAUAAACCAGAAACCUUCTT against Sc4mol, the z-score was inactive: -0.232.

For the sequence GGCAGCAGAGAAGAAAGCCTT against Pld3, the z-score is inactive: -0.496. The value for GGCAAACAGAGAGAAUACGTT against Il22ra1 was inactive: 2.49. To CCACUACAGCAUUGUGACGTT against Enpp4 belongs inactive: -1.71; to GGCACUUCUUGGACAUCAUTT against Sfxn5, inactive: 1.43; to “GGCAUGAGGGCAAAUGAAATT against 4933434M16Rik”, inactive: -2.86. The value for AGACUCGUACACGCAGGAATT against Ggn was inactive: -1.48; that for CCCUCAGCAGCUCCAACAATT against Olfr739 was inactive: -0.612; that for GGGCUCUUUUUGGCGAAUATT against Foxk1 was inactive: -1.35.

For “GGUGCUCUUAAUUCAUAUATT against 1300013D05Rik”, the z-score was inactive: -0.359. For GGCCAAAUUUAUAAUGAACTT against BC003885, the z-score was inactive: 0.344.

On to “CGUGGACUCCGUUAUCAUUTT against B830021E24Rik”, for which the z-score is inactive: 0.088. The value for GGUUUCACUAAGACUUAACTT against Ddx27 was inactive: 0.363. “GGUGAAGCCAAGAAUAGCATT against 3830405G04Rik”: the z-score was inactive: -0.699.

On to GGUCUUUCAGUUGGAUAUATT against Celsr2, for which the z-score is inactive: -1.97. To “GGAGUUGGAUAUUCUAAAATT against 6030413G23Rik” belongs inactive: 1.18. The value for “GGGAUCCGUAAAGAAGAAATT against 4930457P18Rik” was inactive: -0.091; that for UCUAUGCAUGGCCCUUUAATT against Olfr726 was inactive: -0.732. The value for “GGCAGUGAGGUGUAUUGUUTT against 2210413P12Rik” was inactive: -2.48; that for GGUUCUCUAUUUUCAGCACTT against Temt was inactive: 1.03; that for “CCUAUGACACAAGUGAUACTT against A630098A13Rik” was inactive: -0.553. For UACUAGCAGAUUAACCACCTT against Hist1h2bc, the z-score was inactive: 0.583. The value for GGUUGUGCUGAAGAGGUUGTT against Rpl18 was inactive: -2.39. The value for GGAGAAGAGUUAUUGGAUATT against Dnajb4 was inactive: 1.39. To GGGACCAGAUGAAGAAGGATT against Coq4 belongs inactive: -2.98. As to GGUCAUGGCAUUGAACAGUTT against Tbc1d7, the z-score was inactive: 1.53. The value for GGUGAAGCUCACCAACAAUTT against Tbx20 was inactive: 0.218; that for GGGAUCUCAUUGCACAUUUTT against BC036718 was inactive: -1.55; that for CCUCUGGAGGAGUAAGGUUTT against Trh was inactive: -0.408.

For GCACAUAUCACGCUACCUGTT against AI646023, the z-score is inactive: 0.00426. The value for GGUGACUGACAGCUGCCAATT against Prima1 was inactive: -0.633; that for CCUUCCAGUAGACAUGGAATT against Zfp261 was inactive: 0.395; that for “GGAAAAGUUAAAGGAAGUCTT against 6330548G22Rik” was inactive: -0.193. The value for GGAAUGGAUAAAAACAUUGTT against Tank was inactive: 1.26; that for “GGUGCGUCCUGAAAUCAUCTT against 0610040B21Rik” was inactive: -1.56. To GGCAGAAAUCCAUCAGAGATT against Plekhk1 belongs inactive: -0.327.

GGAUUAUGUCCUGAAGAUGTT against Cyp8b1: the z-score is inactive: -0.968. The value for GAAAAUCUAAGGAUCCUUGTT against V1rd17 was inactive: 1.16; that for CGAAAUUGUGAUGAUGAACTT against Mast1 was inactive: -0.492. For UGCUCUUGGGUUCUUAAAUTT against Olfr1466, the z-score is inactive: -1.06. The value for GGAUACUGUUCCUUUAUAUTT against Slc15a2 was inactive: -1.07. In the case of “CGAGUUUGGACAUACCUUUTT against D2Ertd391e”, the z-score is inactive: -0.145.

Consider GAGAGAGAAUACCACUGUGTT against LOC432555, for which the z-score is inactive: 1.16. To GGUUUGUCAAUGAUACUAATT against Adam17 belongs inactive: 1.13; to CGAGAUAUAUAGUUGGAUCTT against Cpa5, inactive: -0.0453; to GGAACCAGUGAUCUUCAAATT against Zim1, inactive: 0.129. The value for GCCAUACCUCACGAGAGCUTT against Mcpt8 was inactive: -0.251; that for CCAUGAAAAACUUAGUGUGTT against Trim37 was inactive: 0.497. The value for GGAGAUUCAUCGCUACCUUTT against Ccna1 was inactive: -0.177; that for GACACCUACUUCAUUGGCCTT against Olfr1245 was inactive: 0.46. As to GGGAAAAAUCAACUUCACUTT against V1rk1, the z-score is inactive: 0.651. To GGGUCUCUUACAAAGUCCATT against Msrb belongs inactive: -0.517. The value for GGAGCAGGUGCUUUUGGAUTT against Cat was inactive: 0.0616. To GGGAUUCAGAACUUAAAGUTT against V1rf4 belongs inactive: 0.81. GGCAUAUUCCGUUUUUAAATT against Pafah1b1: the z-score is inactive: 0.0506. Consider GGAACUUACAUCAGAAAUGTT against Zdhhc2, for which the z-score is inactive: -0.285. On to GCCGGAUGGCACAUUCGUATT against Cda, for which the z-score is inactive: 0.73.

As to GGUAAACAGAAUAGAAUCCTT against Lcmt1, the z-score is inactive: 0.132.
